Measured values published in PubChem BioAssay (EPA / NIEHS).
The inconclusive results got no clear call from the source; some entries with a clear call stand among them for comparison. Potencies beside an inconclusive call are fits to weak or partial responses and may not hold up. Activity calls are given as the source filed them. How the source made its calls: active means hit-call score of the fitted dose curve at least 0.9, where 1 is the maximum; inconclusive means response in the unintended direction; inactive means score below 0.9.

Protein sequences, listed by entry. Tags and fused reporters are not part of them. Lines headed by an entry give the natural chain unless they say otherwise; changes in a name come on top.
UniProt P15204: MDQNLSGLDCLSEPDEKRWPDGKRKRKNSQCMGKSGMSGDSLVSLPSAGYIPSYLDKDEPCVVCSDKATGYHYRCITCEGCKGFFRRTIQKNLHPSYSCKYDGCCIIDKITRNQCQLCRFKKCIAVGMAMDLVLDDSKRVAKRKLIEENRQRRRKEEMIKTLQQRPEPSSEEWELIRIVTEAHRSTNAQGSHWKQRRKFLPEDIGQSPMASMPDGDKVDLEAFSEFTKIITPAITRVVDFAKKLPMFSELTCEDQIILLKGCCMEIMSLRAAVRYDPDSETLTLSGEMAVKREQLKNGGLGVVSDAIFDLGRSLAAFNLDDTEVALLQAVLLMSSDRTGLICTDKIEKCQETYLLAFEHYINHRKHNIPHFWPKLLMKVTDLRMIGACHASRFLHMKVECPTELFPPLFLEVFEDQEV
UniProt P10828: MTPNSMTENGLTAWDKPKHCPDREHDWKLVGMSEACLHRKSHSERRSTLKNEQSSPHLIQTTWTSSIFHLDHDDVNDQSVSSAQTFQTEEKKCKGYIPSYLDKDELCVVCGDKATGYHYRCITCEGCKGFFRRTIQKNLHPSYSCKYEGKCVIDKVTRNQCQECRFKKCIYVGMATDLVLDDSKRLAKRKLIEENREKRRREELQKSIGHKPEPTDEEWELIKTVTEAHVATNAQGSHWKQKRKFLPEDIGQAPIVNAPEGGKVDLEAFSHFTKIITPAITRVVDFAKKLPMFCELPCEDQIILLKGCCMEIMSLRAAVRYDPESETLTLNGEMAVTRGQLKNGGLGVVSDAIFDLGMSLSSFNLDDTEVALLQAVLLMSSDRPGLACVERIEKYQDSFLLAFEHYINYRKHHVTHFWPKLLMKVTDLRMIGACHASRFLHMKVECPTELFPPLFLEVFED
UniProt Q08E50: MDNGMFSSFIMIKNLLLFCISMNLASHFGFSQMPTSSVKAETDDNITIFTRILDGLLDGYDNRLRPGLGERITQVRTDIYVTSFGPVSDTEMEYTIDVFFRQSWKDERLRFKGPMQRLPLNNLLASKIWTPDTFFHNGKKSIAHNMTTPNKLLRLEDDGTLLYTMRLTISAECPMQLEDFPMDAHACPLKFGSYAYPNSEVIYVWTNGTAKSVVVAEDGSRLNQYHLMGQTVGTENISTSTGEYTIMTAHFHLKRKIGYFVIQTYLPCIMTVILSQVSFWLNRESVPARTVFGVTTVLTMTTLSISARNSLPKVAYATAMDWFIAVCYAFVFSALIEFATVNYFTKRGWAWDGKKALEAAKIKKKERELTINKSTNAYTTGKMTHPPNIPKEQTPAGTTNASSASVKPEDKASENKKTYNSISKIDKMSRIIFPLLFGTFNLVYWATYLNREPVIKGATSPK
UniProt Q9PVE4: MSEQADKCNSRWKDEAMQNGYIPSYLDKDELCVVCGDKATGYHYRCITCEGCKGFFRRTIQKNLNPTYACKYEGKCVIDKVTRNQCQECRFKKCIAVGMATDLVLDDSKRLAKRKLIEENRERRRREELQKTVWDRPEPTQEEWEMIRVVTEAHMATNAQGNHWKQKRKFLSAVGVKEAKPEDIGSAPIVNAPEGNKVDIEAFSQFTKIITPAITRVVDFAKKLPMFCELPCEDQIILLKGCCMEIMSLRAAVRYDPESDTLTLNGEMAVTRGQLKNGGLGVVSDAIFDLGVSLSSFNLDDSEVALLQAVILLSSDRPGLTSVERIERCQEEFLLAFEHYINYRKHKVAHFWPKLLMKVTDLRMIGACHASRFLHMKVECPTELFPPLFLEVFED
UniProt Q92731, whole entry, looked up: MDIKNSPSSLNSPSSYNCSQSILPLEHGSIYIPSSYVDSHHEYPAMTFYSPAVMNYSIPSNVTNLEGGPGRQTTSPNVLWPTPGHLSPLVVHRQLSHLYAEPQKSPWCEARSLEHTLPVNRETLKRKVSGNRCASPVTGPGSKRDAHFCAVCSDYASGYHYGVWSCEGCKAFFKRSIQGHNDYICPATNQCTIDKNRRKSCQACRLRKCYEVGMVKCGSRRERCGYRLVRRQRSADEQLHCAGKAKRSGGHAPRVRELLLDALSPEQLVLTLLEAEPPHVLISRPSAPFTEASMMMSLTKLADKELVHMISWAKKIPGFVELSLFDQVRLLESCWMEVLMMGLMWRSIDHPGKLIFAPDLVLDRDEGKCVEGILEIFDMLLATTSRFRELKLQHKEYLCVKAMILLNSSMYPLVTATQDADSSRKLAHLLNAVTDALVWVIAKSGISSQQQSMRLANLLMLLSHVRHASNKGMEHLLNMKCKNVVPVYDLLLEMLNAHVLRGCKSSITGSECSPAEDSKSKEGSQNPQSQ
UniProt P06212, whole entry, looked up: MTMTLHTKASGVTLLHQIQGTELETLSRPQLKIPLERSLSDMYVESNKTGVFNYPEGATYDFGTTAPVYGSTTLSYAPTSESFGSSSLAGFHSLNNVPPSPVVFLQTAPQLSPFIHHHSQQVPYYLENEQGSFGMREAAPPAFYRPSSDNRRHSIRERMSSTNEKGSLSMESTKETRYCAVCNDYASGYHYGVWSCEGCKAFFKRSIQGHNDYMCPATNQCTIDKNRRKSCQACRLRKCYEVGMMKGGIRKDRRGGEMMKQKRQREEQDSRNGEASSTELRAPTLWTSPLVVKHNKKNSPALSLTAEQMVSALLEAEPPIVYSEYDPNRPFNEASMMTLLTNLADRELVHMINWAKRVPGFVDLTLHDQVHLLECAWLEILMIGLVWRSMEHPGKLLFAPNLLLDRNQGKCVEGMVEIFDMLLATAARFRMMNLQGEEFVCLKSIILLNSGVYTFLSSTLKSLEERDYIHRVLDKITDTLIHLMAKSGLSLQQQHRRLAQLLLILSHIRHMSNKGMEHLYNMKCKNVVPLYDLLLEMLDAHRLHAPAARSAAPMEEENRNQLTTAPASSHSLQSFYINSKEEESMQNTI
UniProt P10275: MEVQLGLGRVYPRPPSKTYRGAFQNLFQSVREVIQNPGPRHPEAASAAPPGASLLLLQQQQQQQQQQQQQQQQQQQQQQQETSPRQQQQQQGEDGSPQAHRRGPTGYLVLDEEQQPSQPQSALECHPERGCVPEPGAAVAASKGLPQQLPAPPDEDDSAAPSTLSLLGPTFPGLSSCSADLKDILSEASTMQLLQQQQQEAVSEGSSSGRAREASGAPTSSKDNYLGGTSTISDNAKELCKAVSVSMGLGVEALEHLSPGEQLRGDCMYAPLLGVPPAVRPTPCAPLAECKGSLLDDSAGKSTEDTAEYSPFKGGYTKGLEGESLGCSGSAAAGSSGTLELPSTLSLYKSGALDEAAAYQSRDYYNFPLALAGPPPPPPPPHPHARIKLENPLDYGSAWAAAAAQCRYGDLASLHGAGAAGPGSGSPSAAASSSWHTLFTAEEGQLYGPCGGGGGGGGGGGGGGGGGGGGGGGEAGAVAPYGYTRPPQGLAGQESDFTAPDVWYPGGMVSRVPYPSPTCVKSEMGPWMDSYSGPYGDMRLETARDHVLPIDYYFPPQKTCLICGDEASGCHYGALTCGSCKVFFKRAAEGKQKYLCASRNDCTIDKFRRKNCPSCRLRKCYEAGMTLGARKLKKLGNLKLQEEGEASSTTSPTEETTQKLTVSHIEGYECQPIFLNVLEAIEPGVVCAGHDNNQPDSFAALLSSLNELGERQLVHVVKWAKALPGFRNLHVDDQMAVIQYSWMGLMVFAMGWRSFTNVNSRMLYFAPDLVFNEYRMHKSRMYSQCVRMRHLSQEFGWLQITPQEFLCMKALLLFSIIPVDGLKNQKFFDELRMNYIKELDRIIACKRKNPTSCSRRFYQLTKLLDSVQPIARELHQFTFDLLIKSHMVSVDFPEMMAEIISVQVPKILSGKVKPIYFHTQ
UniProt P43140: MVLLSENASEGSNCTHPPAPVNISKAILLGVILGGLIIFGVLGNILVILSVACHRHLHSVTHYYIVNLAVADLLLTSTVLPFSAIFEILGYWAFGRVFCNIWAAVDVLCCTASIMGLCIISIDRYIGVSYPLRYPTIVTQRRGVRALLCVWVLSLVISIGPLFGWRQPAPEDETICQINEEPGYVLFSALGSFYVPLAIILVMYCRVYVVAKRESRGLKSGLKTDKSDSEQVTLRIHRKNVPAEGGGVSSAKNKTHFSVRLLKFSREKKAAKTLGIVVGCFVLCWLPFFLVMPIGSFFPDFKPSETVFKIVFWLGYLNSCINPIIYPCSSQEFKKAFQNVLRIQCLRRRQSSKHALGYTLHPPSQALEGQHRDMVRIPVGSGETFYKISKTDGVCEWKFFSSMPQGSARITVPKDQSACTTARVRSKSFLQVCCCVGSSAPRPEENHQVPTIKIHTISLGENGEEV
UniProt P06241, whole entry, looked up: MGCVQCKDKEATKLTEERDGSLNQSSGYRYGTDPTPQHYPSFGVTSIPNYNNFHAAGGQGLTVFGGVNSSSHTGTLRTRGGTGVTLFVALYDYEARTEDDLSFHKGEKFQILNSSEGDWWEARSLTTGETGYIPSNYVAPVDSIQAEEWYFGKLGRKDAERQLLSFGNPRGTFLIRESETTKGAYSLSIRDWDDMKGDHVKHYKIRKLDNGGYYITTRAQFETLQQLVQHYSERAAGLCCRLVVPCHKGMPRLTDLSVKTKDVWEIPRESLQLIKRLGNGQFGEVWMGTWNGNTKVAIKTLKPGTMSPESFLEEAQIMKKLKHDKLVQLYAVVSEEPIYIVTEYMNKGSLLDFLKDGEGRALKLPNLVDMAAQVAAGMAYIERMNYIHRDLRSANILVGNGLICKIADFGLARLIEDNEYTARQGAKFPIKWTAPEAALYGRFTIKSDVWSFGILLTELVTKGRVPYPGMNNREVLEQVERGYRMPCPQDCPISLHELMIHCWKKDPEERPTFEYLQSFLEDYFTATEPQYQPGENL
UniProt P23975, whole entry, looked up: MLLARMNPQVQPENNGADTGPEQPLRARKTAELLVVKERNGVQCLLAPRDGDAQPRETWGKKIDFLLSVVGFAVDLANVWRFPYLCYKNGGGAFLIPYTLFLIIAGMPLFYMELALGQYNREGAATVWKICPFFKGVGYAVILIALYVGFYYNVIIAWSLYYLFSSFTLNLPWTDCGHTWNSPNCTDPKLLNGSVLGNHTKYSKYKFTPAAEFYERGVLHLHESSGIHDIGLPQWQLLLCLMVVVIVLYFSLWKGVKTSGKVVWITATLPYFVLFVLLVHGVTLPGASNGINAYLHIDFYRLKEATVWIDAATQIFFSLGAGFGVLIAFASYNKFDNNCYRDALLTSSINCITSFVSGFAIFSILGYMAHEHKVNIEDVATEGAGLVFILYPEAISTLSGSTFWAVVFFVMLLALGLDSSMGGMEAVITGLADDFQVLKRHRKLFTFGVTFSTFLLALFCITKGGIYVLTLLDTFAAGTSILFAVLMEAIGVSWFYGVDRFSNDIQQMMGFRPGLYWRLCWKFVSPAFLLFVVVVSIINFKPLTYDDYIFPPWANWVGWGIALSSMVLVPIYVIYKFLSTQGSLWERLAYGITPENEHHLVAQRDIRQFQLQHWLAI
UniProt P14416, whole entry, looked up: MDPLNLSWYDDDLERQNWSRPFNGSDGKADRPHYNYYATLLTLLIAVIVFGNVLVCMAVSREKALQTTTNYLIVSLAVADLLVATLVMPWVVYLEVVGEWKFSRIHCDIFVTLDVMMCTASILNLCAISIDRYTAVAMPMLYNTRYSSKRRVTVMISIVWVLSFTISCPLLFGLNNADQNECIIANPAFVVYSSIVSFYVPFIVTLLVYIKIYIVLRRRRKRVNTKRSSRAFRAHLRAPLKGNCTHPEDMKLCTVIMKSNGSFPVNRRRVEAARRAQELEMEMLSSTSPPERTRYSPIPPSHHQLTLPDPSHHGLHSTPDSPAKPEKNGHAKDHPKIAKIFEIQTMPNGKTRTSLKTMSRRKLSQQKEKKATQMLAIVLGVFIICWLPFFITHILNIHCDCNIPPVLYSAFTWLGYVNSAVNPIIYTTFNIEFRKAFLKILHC

Legend:
[1] = molecular target: frog Thyroid hormone Receptor alpha (TRa), thra-a (gene 397942) (UniProt P15204); test: ATG_frTRa_XSP2: Attagene TRANS-FACTORIAL Multi-Species (XSP2) HepG2 Assay for frog Thyroid hormone Receptor alpha (TRa) (AID 2283839);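 on AC50: AC50 reflects induction of frog TRa-driven reporter mRNA above DMSO baseline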
Procedure, shortened: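 Transfect HepG2 with multiple reporter units (GAL4-UAS), dose chemical, incubate 24 h. Isolate RNA, reverse-transcribe, PCR-amplify reporter, label with 6-FAM by primer extension, digest with HpaI, run capillary electrophoresis; induction scored against DMSO.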

[2] = molecular target: human Thyroid hormone Receptor beta (TRb), THRB (gene 7068) (UniProt P10828); test: ATG_hTRb_XSP2: Attagene TRANS-FACTORIAL Multi-Species (XSP2) HepG2 Assay for human Thyroid hormone Receptor beta (TRb) (AID 2283840);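 further: actives raise reporter mRNA so potency reflects agonist-like gain of signal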
Procedure, shortened: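 Transient transfection of human HepG2 with multi-species NR-Gal4/GAL4-UAS reporter constructs; 24 h compound treatment; RNA isolation, reverse transcription, PCR and HpaI digest; capillary electrophoresis of labeled fragments; activity fitted upward versus DMSO.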

[3] = CCTE_Shafer_MEA_dev_LDH: CCTE's Lactate Dehydrogenase Assay for Cytotoxicity in the Neural Network Formation Assay, Shafer Lab (AID 2284068);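 further: exposure for twelve days from plating with re-dosing on DIV 5 and 9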
Procedure, shortened: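 Rat cortical primary neurons, MEA culture; dosing day 0–12, full medium plus compound exchange DIV 5, 9. Read-out: LDH enzyme activity, spectrophotometric. DMSO = negative control/baseline; signal loss → cytotoxicity.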

[4] = molecular target: bovine Gamma-Aminobutyric Acid Type A Receptor BDZ, alpha 5 site (GABARa5), GABRA5 (gene 523515) (UniProt Q08E50); test: NVS_LGIC_bGABARa5: NovaScreen (NVS) Ligand-Gated Ion Channel Assay for bovine Gamma-Aminobutyric Acid Type A Receptor BDZ, alpha 5 site (GABARa5) (AID 2283323)
Procedure, shortened: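 Radioligand competitive displacement binding on bovine hippocampal membranes, read 1 hr after dosing by filter-based scintillation counting. Primary screen at 25 uM in duplicate; actives (e.g. ≥30% inhibition) then run in concentration-response up to 50 uM.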

[5] = test system: zebrafish Peroxisome Proliferator-activated Receptor gamma (PPARg), gene 557037; test: ATG_zfPPARg_XSP1: Attagene TRANS-FACTORIAL Multi-Species (XSP1) HepG2 Assay for zebrafish Peroxisome Proliferator-activated Receptor gamma (PPARg) (AID 2283801)
Procedure, shortened: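 HepG2 cells transiently transfected with GAL4-UAS reporter units including a zebrafish PPARg–GAL4 chimera, dosed 24 h with 3 nM 6-alpha-fluorotestosterone present. Reporter mRNA quantified by RT-PCR, FAM labelling, HpaI digestion and capillary electrophoresis; induction versus DMSO.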

[6] = test system: turtle Thyroid Hormone Receptor, alpha (TRa), gene 101949057; test: ATG_trTRa_XSP1: Attagene TRANS-FACTORIAL Multi-Species (XSP1) HepG2 Assay for turtle Thyroid Hormone Receptor, alpha (TRa) (AID 2283806)
Procedure, shortened: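 HepG2 cells transiently transfected with GAL4-UAS reporter units and chimeric receptor-Gal4 constructs, with 3 nM 6-alpha-fluorotestosterone present. Reporter mRNA was quantified 24 h after dosing by RT-PCR, 6-FAM labelling and capillary electrophoresis; gain of signal versus DMSO.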

[7] = molecular target: zebrafish Thyroid Hormone Receptor beta (TRb), thrb (gene 30607) (UniProt Q9PVE4); test: ATG_zfTRb_XSP1: Attagene TRANS-FACTORIAL Multi-Species (XSP1) HepG2 Assay for zebrafish Thyroid Hormone Receptor beta (TRb) (AID 2283809)
Procedure, shortened: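 HepG2 cells transiently transfected with multiplexed GAL4-UAS reporter units expressing chimeric zebrafish TRb–Gal4. Dosed 24 h with 3 nM 6-alpha-fluorotestosterone present; reporter mRNA measured by RT-PCR, HpaI digestion and capillary electrophoresis; gain of signal versus DMSO.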

[8] = test system: turtle Estrogen Receptor (ERa), gene 101933533; test: ATG_trERa_XSP2: Attagene TRANS-FACTORIAL Multi-Species (XSP2) HepG2 Assay for turtle Estrogen Receptor (ERa) (AID 2283812);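 further: human HepG2 liver cells transiently expressing turtle ERa-Gal4 chimeric receptor; actives raise reporter signal above DMSO so AC50 reflects agonist activity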
Procedure, shortened: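 HepG2 cells transiently transfected with GAL4-UAS reporter units expressing turtle ERa-Gal4 chimera. Reporter mRNA measured after 24 h dosing by RT-PCR, fluorescent labelling and capillary electrophoresis; gain of signal fitted versus DMSO.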

[9] = molecular target: Estrogen receptor beta (Homo sapiens) (UniProt Q92731); test: ATG_hERb_XSP2: Attagene TRANS-FACTORIAL Multi-Species (XSP2) HepG2 Assay for human Estrogen Receptor (ERb) (AID 2283813);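 further: actives raise reporter mRNA above DMSO so AC50 reflects agonist induction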
Procedure, shortened: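 HepG2 cells transiently transfected with GAL4-UAS reporter units and chimeric human ERb-Gal4, 24 h exposure. Reporter mRNA quantified by RT-PCR with FAM labelling, HpaI digestion and capillary electrophoresis; gain of signal versus DMSO.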

[10] = molecular target: chicken Estrogen Receptor (ERa), ESR1 (gene 396099) (UniProt P06212); test: ATG_chERa_XSP2: Attagene TRANS-FACTORIAL Multi-Species (XSP2) HepG2 Assay for chicken Estrogen Receptor (ERa) (AID 2283817);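 further: actives raise reporter signal above DMSO so AC50 reflects ER activation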
Procedure, shortened: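 Transiently transfected HepG2 cells expressing chimeric chicken ERa-GAL4 reporter units, dosed 24 h with 3 nM 6-alpha-fluorotestosterone and 1.5 nM norgestrel present. Reporter mRNA measured by RT-PCR and capillary electrophoresis; gain-of-signal fitted relative to DMSO.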

[11] = test system: zebrafish Estrogen Receptor (ER2b), gene 317733; test: ATG_zfER2b_XSP2: Attagene TRANS-FACTORIAL Multi-Species (XSP2) HepG2 Assay for zebrafish Estrogen Receptor (ER2b) (AID 2283823);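 further: fitted upward as reporter gain over DMSO so potency reflects activation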
Procedure, shortened: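 Cells used were HepG2, transiently transfected with chimeric nuclear receptor-Gal4 reporter units. After 24 h of chemical treatment, reporter transcripts were amplified by RT-PCR, labelled and sized by capillary electrophoresis, with induction analysed relative to DMSO.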

[12] = ATG_M_32_XSP2: Attagene TRANS-FACTORIAL Multi-Species (XSP2) HepG2 Assay for M19 Transcription Factor (Internal Marker) (AID 2283826)
Procedure, shortened: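 Transfected HepG2 (multiplexed GAL4-UAS reporters), 24 h chemical exposure, 3 nM 6-alpha-fluorotestosterone + 1.5 nM norgestrel added. RNA → oligo(dT) RT → PCR → 6-FAM primer extension → HpaI cut → CE. Fitted upward vs DMSO.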

[13] = molecular target: Nuclear receptor subfamily 1 group I member 2 (Mus musculus) (UniProt O54915); test: ATG_mPXR_XSP2: Attagene TRANS-FACTORIAL Multi-Species (XSP1) HepG2 Assay for mouse Pregnane X Receptor (PXR) (AID 2283831)
Procedure, shortened: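 Reporter transcripts were quantified by RT-PCR, FAM primer extension, HpaI digestion and capillary electrophoresis after 24 h of chemical exposure in transiently transfected HepG2 cells carrying chimeric receptor-GAL4 constructs; DMSO served as baseline.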

AR (gene 367) = AR (gene 367) (UniProt P10275); test: ACEA_AR_antagonist_80hr: ACEA Biosciences xCELLigence Real-Time Cell Analysis on Androgen Receptor Antagonism for Proliferation (AID 2283787);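 further: 22Rv1 human prostate cancer cells with growth followed by electrical impedance; hits lower the impedance growth signal relative to DMSO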
Procedure, shortened: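 22Rv1 cells in assay medium, growth tracked by electrical impedance; compounds eight-point 1:4 dilutions from 100 uM final, duplicate plates. Endpoint at 80 h; loss of signal versus DMSO.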

[14] = molecular target: rat Adrenergic, Alpha 1, Non-selective Receptor (Adra1), Adra1a (gene 29412) (UniProt P43140); test: NVS_GPCR_rAdra1_NonSelective: NovaScreen (NVS) G Protein-Coupled Receptor Assay for rat Adrenergic, Alpha 1, Non-selective Receptor (Adra1) (AID 2283289)
Procedure, shortened: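 Rat forebrain membranes; radioligand displacement read by filter-based scintillation counting 1 h after dosing. Primary screen in duplicate at 25 uM; hits (e.g. ≥30% inhibition) rerun as concentration–response to 50 uM max. Fitted versus DMSO.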

[15] = test system: rat Adrenergic, Alpha 1B Receptor (Adra1B), gene 24173; test: NVS_GPCR_rAdra1B: NovaScreen (NVS) G Protein-Coupled Receptor Assay for rat Adrenergic, Alpha 1B Receptor (Adra1B) (AID 2283297)
Procedure, shortened: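 Rat liver membranes, radioligand displacement with filter-based scintillation detection, 1 h incubation. Primary screen in duplicate at 25 uM; actives retested in concentration series; activity relative to DMSO.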

[16] = molecular target: human FYN Proto-Oncogene, Src family Tyrosine Kinase (Fyn), FYN (gene 2534) (UniProt P06241); test: NVS_ENZ_hFyn: NovaScreen (NVS) Enzymatic Assay for human FYN Proto-Oncogene, Src family Tyrosine Kinase (Fyn) (AID 2283161)
Procedure, shortened: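 Recombinant enzyme with fluorescent substrate, product separated by electrophoretic mobility shift; read 1 h after dosing. Duplicate 25 uM single-point screen, actives retested in concentration series; loss of signal vs DMSO.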

[17] = molecular target: human Norepinephrine Transporter (NET), SLC6A2 (gene 6530) (UniProt P23975); test: NVS_TR_hNET: NovaScreen (NVS) Transporter Assay for human Norepinephrine Transporter (NET) (AID 2283377);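 further: displacement of radioligand from human NET seen as loss of scintillation signal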
Procedure, shortened: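 Cell-free radioligand binding using CHO-derived membrane protein expressing human NET, read by filter scintillation counting 1 h after dosing; loss of signal vs DMSO. Initial duplicate screen at 25 uM, actives retested in concentration series.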

[18] = CCTE_Mundy_HCI_hNP1_CellTiter: CCTE's Cell Titer-Glo 2 Assay in human neuroprogenitor cells for Viability, Mundy Lab (AID 2284241);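 further: a hit is a drop in ATP luminescence versus DMSO meaning reduced viability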
Procedure, shortened: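 Viability read as luminescent ATP content (CellTiter-Glo, 30 min room temperature) twenty-four hours after dosing, relative to DMSO. Cells: WA09-derived hNP1 neuroprogenitors on poly-L-ornithine/laminin, plated 40 to 44 hours before chemical.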

[19] = molecular target: human Dopamine Receptor D2 (DRD2), DRD2 (gene 1813) (UniProt P14416); test: NVS_GPCR_hDRD2s: NovaScreen (NVS) G Protein-Coupled Receptor Assay for human Dopamine Receptor D2 (DRD2) (AID 2283266)
Procedure, shortened: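 Radioligand displacement used human DRD2 membranes extracted from CHO cells and was read by filter-based scintillation counting after 1.5 hours. Primary screening was in duplicate at 25 uM. Loss of signal versus DMSO was fitted, with concentration series in follow-up.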

c1ccc2c(c1)ccc1ccccc12
AC50 [1]: inconclusive: 100 µM | outcome [1]: inactive | AC50 [2]: inconclusive: 33.4 µM | outcome [3]: inactive

CC(C)c1cccc(C(C)C)c1NC(=O)NS(=O)(=O)c1cc(C(C)(C)O)co1
outcome [4]: inactive

CN(CCOc1ccc(CC2SC(=O)NC2=O)cc1)c1ccccn1 (stereo not given)
AC50 [5]: inconclusive: 0.1 µM | AC50 [6]: inconclusive: 0.1 µM | AC50 [7]: inconclusive: 0.1 µM | AC50 [8]: inconclusive: 0.1 µM | AC50 [9]: inconclusive: 0.1 µM | AC50 [10]: inconclusive: 0.0305 µM | AC50 [11]: inconclusive: 0.0198 µM | AC50 [12]: inconclusive: 0.1 µM | AC50 [13]: inconclusive: 0.1 µM | AC50 [2]: inconclusive: 0.1 µM

FC(F)(F)c1ccc(Cl)c(Cl)c1
AC50 (AR (gene 367)): inconclusive: 16.6 µM

COCc1nnc(-c2ccc[n+]([O-])c2)n1-c1c(Cl)c(Cl)cc2[nH]c(=O)c(=O)[nH]c12
AC50 [14]: inconclusive: 25 µM | AC50 [15]: inconclusive: 1.14 µM

CCCCC(CC)COC(=O)CCCCCCCC(=O)OCC(CC)CCCC (stereo not given)
AC50 [16]: inconclusive: 1.78 µM

CC1(C)[C@H](C=C(Cl)Cl)[C@H]1C(=O)OCc1cccc(Oc2ccccc2)c1
AC50 [17]: inconclusive: 25 µM

OCCC(F)(F)C(F)(F)C(F)(F)C(F)(F)C(F)(F)C(F)(F)F
AC50 [3]: inconclusive: 15 µM | AC50 [18]: inconclusive: 15 µM

CCCCCCCCCCCCCC(=O)OC(C)C
outcome (AR (gene 367)): inactive

O=C(CCCCCCCCc1cccnc1)N1CCC(C=C(c2ccccc2)c2ccccc2)CC1
AC50 [19]: inconclusive: 0.674 µM

CCCCC(CC)COC(=O)c1ccc(O)cc1 (stereo not given)
outcome [5]: inactive | AC50 [6]: inconclusive: 11.1 µM | AC50 [7]: inconclusive: 0.00914 µM | AC50 [9]: inconclusive: 33.4 µM

CCCCCCC(C=O)=Cc1ccccc1
AC50 [16]: inconclusive: 0.223 µM

CCCCCCCCCC
outcome [19]: inactive | AC50 [14]: inconclusive: 45.6 µM | outcome [15]: inactive | AC50 [4]: inconclusive: 0.634 µM | AC50 [17]: inconclusive: 43.8 µM
